In PubChem BioAssay AID540256 (National Center for Advancing Translational Sciences (NCATS), 2011):
The whole screen tested about 300,000 compounds, of which about 3,700 (1.2%) were called active. Inconclusive results, whose numbers are uncertain, are shown with a selection of clear calls. Calls follow the shape of the full dose curve; tested in HEK293 cells. Where the call is inconclusive, the potency comes from a doubtful curve fit.

Test: qHTS for Inhibitors of binding or entry into cells for Lassa Virus; also: nearly all actives have a fitted effect of over 50% in size
Conditions: Lassa virus pseudotype entry inhibition, cell reporter; series mostly up to 37.9 µM
Potency is read from the fitted curve at half-maximal effect.

| SMILES | Potency |
| --- | --- |
| COc1ccc(Oc2nc(SC)nc3ccsc23)cc1 | inconclusive: 8.91 µM [inhibitor, partial curve, poor fit] |
| CCCCNC(=O)C1CC(=O)N(CCC(C)C)C1 (stereo not drawn) | inactive |
| COc1ccc(OCCN(C)Cc2c(O)ccc3ccccc23)cc1 | inactive |
| Cc1cc(-c2nnco2)c(C)n1-c1ccccc1 | inactive |
| O=C(NC1CCCCC1)c1ccc(S(=O)(=O)NCc2cccnc2)cc1 | inconclusive: 2.91 µM [inhibitor, partial curve, poor fit] |
| Cc1cccc(NC(=O)C(=O)NCCc2sc(-c3ccccc3)nc2C)c1C | inactive |
| CCn1cnc2cc(NCc3cccc(OC)c3O)ccc21 | inactive |
| CCN(CC(=O)NC(=O)NC1CCCC1)Cc1ccccc1 | inconclusive: 0.631 µM [inhibitor, partial curve, poor fit] |
| Cc1ccccc1OCC(=O)NCCNC(=O)c1ccccn1 | inactive |
| COc1ccccc1CNC(=O)C1CCC(CNS(=O)(=O)c2cccs2)CC1 (stereo not drawn) | inconclusive: 15.8 µM [inhibitor, partial curve, poor fit] |
| O=C(CCN1C(=O)/C(=C/C=C/c2ccccc2)SC1=S)Nc1nccs1 | inconclusive: 17.8 µM [activator, single point] |
| CCn1c(SCC(=O)N2c3ccccc3Sc3ccccc32)nnc1-c1ccco1 | inactive |
| COCCNc1nnc(SC(C)C(=O)Nc2c(C)n(C)n(-c3ccccc3)c2=O)s1 (stereo not drawn) | inactive |
| CCOc1ccccc1/C=N/NC(=O)c1cccc(S(=O)(=O)N(CC)CC)c1 | inactive |
| Cc1cccc(NC(=O)c2sc3nc(-c4ccccc4)cn3c2C)c1C | inactive |
| COc1ccc(-c2noc(CCCC(=O)O)n2)cc1 | inconclusive: 1.64 µM [inhibitor, full curve, poor fit] |
| C/C(CC(=O)Nc1cc(C)ccn1)=N\NC(=O)c1cccc(C)c1O | inconclusive: 6.31 µM [inhibitor, full curve, poor fit] |
| Cc1ccccc1CC1(CO)CCCN(C(=O)CCCN2CCCCC2=O)C1 (stereo not drawn) | inactive |
| O=C(NC(=S)Nc1ccc2c(c1)OCCO2)c1cccc2ccccc12 | inconclusive: 23.1 µM [inhibitor, partial curve, poor fit] |
| Cn1c(=O)c2[nH]cnc2n(C)c1=O | inconclusive: 0.517 µM [activator, full curve] |
| COc1cccc(NC(=O)c2sc3nc(C)c(C(=O)Nc4ccc(Cl)cc4)c(-c4ccc(Br)cc4)c3c2N)c1 | inconclusive: 8.91 µM [activator, partial curve, poor fit] |
| COc1ccc(CCNC(=O)c2ccc(N(C)S(=O)(=O)c3ccccc3)cc2)cc1 | inactive |
| Cc1ccc(C)c(NC(=O)CSc2sc3c(O)cc(=O)[nH]c3c2C#N)c1 | inactive |

As entered above:
Value for CCCCNC(=O)C1CC(=O)N(CCC(C)C)C1 (stereo not drawn) under Potency: inactive
Value for Cc1cc(-c2nnco2)c(C)n1-c1ccccc1 under Potency: inactive
Value for COCCNc1nnc(SC(C)C(=O)Nc2c(C)n(C)n(-c3ccccc3)c2=O)s1 (stereo not drawn) under Potency: inactive
Value for Cc1ccc(C)c(NC(=O)CSc2sc3c(O)cc(=O)[nH]c3c2C#N)c1 under Potency: inactive

Next part:

| SMILES | Potency |
| --- | --- |
| CC(C)C(=O)Nc1ccc2oc(-c3cc(F)c(F)cc3Cl)nc2c1 | inconclusive: 6.51 µM [activator, single point] |
| Cc1ccc(C(=O)N/C(=C\c2ccc(-c3ccccc3[N+](=O)[O-])o2)C(=O)NCCN(C)C)cc1 | inactive |
| Cc1csc(NC(=O)CSc2nc(C(C)C)nc3ccccc23)n1 | inconclusive: 12.6 µM [inhibitor, single point] |
| Cc1ccc(S(=O)(=O)CC(CN2CCCCC2)N2CCCCC2)cc1 (stereo not drawn) | inactive |
| O=C(/C=C/c1cn(-c2ccccc2)nc1-c1cccnc1)c1ccco1 | active: 10 µM |
| Cc1ccc(OCC(=O)Nc2ccc3c(c2)CCC3)c([N+](=O)[O-])n1 | inconclusive: 1.26 µM [inhibitor, single point] |
| O=C(Nc1ccc(S(=O)(=O)N2CCOCC2)cc1)c1ccccc1 | inconclusive: 0.708 µM [activator, single point] |
| Cc1ccc(NC(=O)c2cc3ccccc3oc2=O)cc1S(=O)(=O)N(C)C | inconclusive: 2.24 µM [inhibitor, full curve, poor fit] |
| CCc1ccc(NC(=O)C(NS(=O)(=O)c2cccc3nsnc23)c2ccccc2)cc1 (stereo not drawn) | inconclusive: 22.4 µM [inhibitor, single point] |
| O=S1(=O)c2ccc(Br)cc2OC[C@H](c2ccccc2)N1Cc1ccccc1 | inconclusive: 22.3 µM [inhibitor, partial curve, poor fit] |
| NS(=O)(=O)c1cc(C(=O)Nc2ccc3c(c2)CCC3)ccc1Cl | inconclusive: 25.1 µM [inhibitor, single point] |
| COc1ccc(C2CC(C(F)(F)F)n3nc(C(=O)NCc4cn(C)nc4C)c(Cl)c3N2)cc1 (stereo not drawn) | inactive |
| CCOC(=O)N1CCC(NC(=O)CSCc2cnn(-c3ccccc3)c2-n2cccc2)CC1 | inconclusive: 2.51 µM [inhibitor, partial curve, poor fit] |
| CCOC(=O)c1c(NC(=O)C(Sc2ccccc2)c2ccccc2)sc(C(N)=O)c1C (stereo not drawn) | inconclusive: 0.73 µM [inhibitor, partial curve, poor fit] |
| O=C1CN=C(c2ccccc2Cl)c2cc(Cl)ccc2N1Cc1cccc(Cl)c1 | inconclusive: 0.631 µM [activator, full curve, poor fit] |
| COc1ccc(CCN2C(=O)N(c3ccc(C)cc3)C(=O)C2CC(=O)Nc2ccc(F)cc2)cc1 (stereo not drawn) | inconclusive: 35.5 µM [inhibitor, single point] |
| CCC(=O)Nc1nc(-c2ccccc2)ns1 | inactive |
| O=C(Cc1ccc([N+](=O)[O-])cc1)Nc1cc(C(F)(F)F)cc(C(F)(F)F)c1 | inconclusive: 35.5 µM [inhibitor, single point] |
| Cn1nnnc1SCc1ccc(C(=O)Nc2ccc(Br)cc2)cc1 | inconclusive: 2.82 µM [activator, partial curve, poor fit] |
| CC(=O)Nc1ccc(S(=O)(=O)NCC(=O)NNC(=O)c2csc(N3CCOCC3)n2)cc1 | inactive |
| Cc1cc(C)c(O)c(-c2cc(C(=O)Nc3ccc(S(=O)(=O)N4CCOCC4)cc3)[nH]n2)c1 | inconclusive: 23.1 µM [inhibitor, single point] |
| COC(=O)c1ccc(C(c2c(N)n(CC(C)C)c(=O)[nH]c2=O)N2CCN(c3ccccc3)CC2)cc1 (stereo not drawn) | inconclusive: 8.2 µM [inhibitor, partial curve, poor fit] |
| COC(=O)c1ccc(CSc2nc(-c3ccccc3)cs2)o1 | inactive |

| SMILES | Potency |
| --- | --- |
| O=C(c1ccc(Cl)nc1)N1CCN(C/C=C/c2ccccc2)CC1 | inconclusive: 35.5 µM [inhibitor, single point] |
| COc1ccc(CCn2c(O)cc3nn(-c4nc5ccccc5s4)c(=O)c-3c2C)cc1 | inactive |
| CCCOc1ccc(Cn2c(O)cc(=O)[nH]c2=O)cc1 | inconclusive: 1.12 µM [activator, full curve, poor fit] |
| COCCOCCn1c(/C=C/c2ccccc2)nc2ccccc21 | inconclusive: 35.5 µM [inhibitor, single point] |
| COc1ccc(OCc2cc(C(=O)N[C@H]3CCCCNC3=O)no2)c(Cl)c1 | inconclusive: 7.08 µM [activator, partial curve] |
| CC1=NN(c2nc3ccccc3[nH]2)C(=O)/C1=C/N(C)C | inconclusive: 1.58 µM [inhibitor, full curve, poor fit] |
| Cc1cc(C)c2nc(NNC(=O)c3ccc(S(=O)(=O)N4CCCCC4)cc3)sc2c1 | inconclusive: 10.3 µM [inhibitor, partial curve, poor fit] |
| COc1ccc(CCNC(c2ccc(F)cc2)c2nnc(-c3ccccc3Cl)o2)cc1OC (stereo not drawn) | inactive |
| Brc1ccc(C2=CC(c3cccs3)n3ncnc3N2)cc1 (stereo not drawn) | inconclusive: 5.17 µM [activator, single point] |
| CN1CCN(/N=C/c2nc(-c3ccc(Cl)cc3)n3ccccc23)CC1 | inactive |
| Cc1cc(C)n2nc(SC(C)C(=O)Nc3ccc(Cl)cn3)nc2n1 (stereo not drawn) | inconclusive: 1 µM [inhibitor, single point] |
| O=C(CSc1nc(-c2cccs2)nc2cc(=O)[nH]n12)Nc1cccc(C(F)(F)F)c1 | inactive |
| O=C1CCC/C1=c1\s/c(=C/c2cccnc2)c(=O)n1-c1ccccc1 | inconclusive: 1.26 µM [inhibitor, single point] |
| CCc1ccc(OCC(O)CN2CCC(CN3C(=O)c4cccc5cccc(c45)C3=O)CC2)cc1 (stereo not drawn) | inconclusive: 6.31 µM [inhibitor, single point] |
| CCOC(=O)c1ccc(N2CCOCC2)c(NC(=O)c2c(-c3ccccc3)noc2C)c1 | inconclusive: 1.58 µM [inhibitor, full curve, poor fit] |
| C/C(Cn1cnc([N+](=O)[O-])n1)=N\NC(=O)c1cccc(F)c1 | inactive |
| Cc1c(C)c2ccc(OCC(=O)Nc3ccc(CN4CCOCC4)cc3)cc2oc1=O | inconclusive: 14.1 µM [activator, single point] |
| Cn1c(=O)c2c(nc(N3CCOCC3)n2Cc2c(F)cccc2Cl)n(C)c1=O | inconclusive: 3.66 µM [inhibitor, single point] |
| CCOC(=O)N1CCN(C(=O)CSCc2ccc(Br)cc2)CC1 | inconclusive: 0.794 µM [inhibitor, single point] |
| COc1cc(/C=C/c2nc(-c3ccccc3O)n[nH]2)cc(OC)c1OC | inconclusive: 12.6 µM [inhibitor, partial curve, poor fit] |
| O=C(NCc1cn(-c2ccccc2)nc1-c1ccccc1)c1cc([N+](=O)[O-])cc([N+](=O)[O-])c1 | inactive |
| COc1ccc(N(CC(=O)Nc2cccc(C(C)=O)c2)S(=O)(=O)c2ccccc2)c(OC)c1 | inconclusive: 1.12 µM [inhibitor, partial curve, poor fit] |
